# The list shows a part of the results.
# Experiments:
# Assay in all cases: glycan array binding signal (z-score within array); higher = stronger binding
# Settings in all cases: glycan notation: IUPAC condensed, linker removed
# [1] = target: Fuc(a1-2)[Gal(a1-3)]Gal(b1-3)GlcNAc(b1-6)GalNAc
# Outline: (§1)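 From the Consortium for Functional Glycomics database, 3228 arrays were curated, keeping only those whose protein sequence was available. Binding is given as a within-array Z-score averaged across arrays sharing a protein sequence and across linkers. Negative Z-scores can be read as non-binding.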
# [2] = target: Fuc(a1-2)[Gal(a1-3)]Gal(b1-4)Glc
# Outline: as §1
# [3] = target: Fuc(a1-2)[Gal(a1-3)]Gal(b1-4)GlcNAc
# Outline: as §1
# [4] = target: Fuc(a1-2)[Gal(a1-3)]Gal(b1-4)GlcNAc(b1-2)Man
# Outline: as §1
# [5] = target: Fuc(a1-2)[Gal(a1-3)]Gal(b1-4)GlcNAc(b1-2)Man(a1-3)[Fuc(a1-2)[Gal(a1-3)]Gal(b1-4)GlcNAc(b1-2)Man(a1-6)]Man(b1-4)GlcNAc(b1-4)GlcNAc
# Outline: as §1
# [6] = target: Fuc(a1-2)[Gal(a1-3)]Gal(b1-4)GlcNAc(b1-2)Man(a1-3)[Fuc(a1-2)[Gal(a1-3)]Gal(b1-4)GlcNAc(b1-2)Man(a1-6)]Man(b1-4)GlcNAc(b1-4)[Fuc(a1-6)]GlcNAc
# Outline: as §1
# [7] = target: Fuc(a1-2)[Gal(a1-3)]Gal(b1-4)GlcNAc(b1-3)GalNAc
# Outline: as §1
# [8] = target: Fuc(a1-2)[Gal(a1-3)]Gal(b1-4)GlcNAc(b1-3)[Fuc(a1-2)[Gal(a1-3)]Gal(b1-4)GlcNAc(b1-6)]GalNAc
# Outline: as §1
# [9] = target: Fuc(a1-2)[Gal(a1-3)]Gal(b1-4)GlcNAc(b1-6)GalNAc
# Outline: as §1
# [10] = target: Fuc(a1-2)[Gal(a1-3)]Gal(b1-4)[Fuc(a1-3)]Glc
# Outline: as §1
# [11] = target: Fuc(a1-2)[Gal(a1-3)]Gal(b1-4)[Fuc(a1-3)]GlcNAc
# Outline: as §1
# [12] = target: Fuc(a1-2)[Gal(a1-3)]Gal(b1-4)[Fuc(a1-3)]GlcNAc(b1-3)GalNAc
# Outline: as §1
# [13] = target: Fuc(a1-2)[Gal(a1-4)]Gal(b1-4)GlcNAc
# Outline: as §1
# [14] = target: Fuc(a1-2)[GalNAc(a1-3)]Gal
# Outline: as §1
# [15] = target: Fuc(a1-2)[GalNAc(a1-3)]Gal(b1-3)GalNAc(a1-3)[Fuc(a1-2)]Gal(b1-4)GlcNAc
# Outline: as §1
# [16] = target: Fuc(a1-2)[GalNAc(a1-3)]Gal(b1-3)GalNAc(b1-3)Gal(a1-4)Gal(b1-4)Glc
# Outline: as §1
# [17] = target: Fuc(a1-2)[GalNAc(a1-3)]Gal(b1-3)GlcNAc
# Outline: as §1
# [18] = target: Fuc(a1-2)[GalNAc(a1-3)]Gal(b1-3)GlcNAc(b1-2)Man(a1-3)[Fuc(a1-2)[GalNAc(a1-3)]Gal(b1-3)GlcNAc(b1-2)Man(a1-6)]Man(b1-4)GlcNAc(b1-4)GlcNAc
# Outline: as §1
# [19] = target: Fuc(a1-2)[GalNAc(a1-3)]Gal(b1-3)GlcNAc(b1-2)Man(a1-3)[Fuc(a1-2)[GalNAc(a1-3)]Gal(b1-3)GlcNAc(b1-2)Man(a1-6)]Man(b1-4)GlcNAc(b1-4)[Fuc(a1-6)]GlcNAc
# Outline: as §1
# [20] = target: Fuc(a1-2)[GalNAc(a1-3)]Gal(b1-3)GlcNAc(b1-3)GalNAc
# Outline: as §1
# [21] = target: Fuc(a1-2)[GalNAc(a1-3)]Gal(b1-3)GlcNAc(b1-6)GalNAc
# Outline: as §1
# [22] = target: Fuc(a1-2)[GalNAc(a1-3)]Gal(b1-4)Glc
# Outline: as §1
# [23] = target: Fuc(a1-2)[GalNAc(a1-3)]Gal(b1-4)GlcNAc
# Outline: as §1
# [24] = target: Fuc(a1-2)[GalNAc(a1-3)]Gal(b1-4)GlcNAc(b1-2)Man
# Outline: as §1
# [25] = target: Fuc(a1-2)[GalNAc(a1-3)]Gal(b1-4)GlcNAc(b1-2)Man(a1-3)[Fuc(a1-2)[GalNAc(a1-3)]Gal(b1-4)GlcNAc(b1-2)Man(a1-6)]Man(b1-4)GlcNAc(b1-4)GlcNAc
# Outline: as §1
# [26] = target: Fuc(a1-2)[GalNAc(a1-3)]Gal(b1-4)GlcNAc(b1-2)Man(a1-3)[Fuc(a1-2)[GalNAc(a1-3)]Gal(b1-4)GlcNAc(b1-2)Man(a1-6)]Man(b1-4)GlcNAc(b1-4)[Fuc(a1-6)]GlcNAc
# Outline: as §1
# [27] = target: Fuc(a1-2)[GalNAc(a1-3)]Gal(b1-4)GlcNAc(b1-3)Gal(b1-4)GlcNAc
# Outline: as §1
# [28] = target: Fuc(a1-2)[GalNAc(a1-3)]Gal(b1-4)GlcNAc(b1-3)Gal(b1-4)GlcNAc(b1-3)Gal(b1-4)GlcNAc
# Outline: as §1
# [29] = target: Fuc(a1-2)[GalNAc(a1-3)]Gal(b1-4)GlcNAc(b1-3)GalNAc
# Outline: as §1
# [30] = target: Fuc(a1-2)[GalNAc(a1-3)]Gal(b1-4)GlcNAc(b1-3)[Fuc(a1-2)[GalNAc(a1-3)]Gal(b1-4)GlcNAc(b1-6)]GalNAc
# Outline: as §1
# [31] = target: Fuc(a1-2)[GalNAc(a1-3)]Gal(b1-4)GlcNAc(b1-6)GalNAc
# Outline: as §1
# [32] = target: Fuc(a1-2)[GalNAc(a1-3)]Gal(b1-4)[Fuc(a1-3)]GlcNAc
# Outline: as §1
# [33] = target: Fuc(a1-2)[GalNAc(a1-3)]Gal(b1-4)[Fuc(a1-3)]GlcNAc(b1-3)GalNAc
# Outline: as §1
# [34] = target: Fuc(a1-2)[GalNAc(a1-4)]Gal(b1-4)GlcNAc
# Outline: as §1
# [35] = target: Fuc(a1-2)[GalNAc(b1-3)]Gal
# Outline: as §1
# Fuc(a1-3)GlcNAc = target: Fuc(a1-3)GlcNAc
# Outline: as §1
# [36] = target: Fuc(a1-3)[Gal(b1-4)]Glc6S
# Outline: as §1
# [37] = target: Fuc(a1-3)[Gal(b1-4)]GlcNAc
# Outline: as §1
# [38] = target: Fuc(a1-3)[Gal(b1-4)]GlcNAc(b1-2)Man
# Outline: as §1
# [39] = target: Fuc(a1-3)[Gal(b1-4)]GlcNAc(b1-2)Man(a1-3)[Fuc(a1-3)[Gal(b1-4)]GlcNAc(b1-2)Man(a1-6)]Man(b1-4)GlcNAc(b1-4)GlcNAc
# Outline: as §1
# [40] = target: Fuc(a1-3)[Gal(b1-4)]GlcNAc(b1-2)Man(a1-3)[Fuc(a1-3)[Gal(b1-4)]GlcNAc(b1-2)Man(a1-6)]Man(b1-4)GlcNAc(b1-4)[Fuc(a1-6)]GlcNAc
# Outline: as §1
# [41] = target: Fuc(a1-3)[Gal(b1-4)]GlcNAc(b1-3)Gal(b1-3)[Fuc(a1-4)]GlcNAc
# Outline: as §1
# [42] = target: Fuc(a1-3)[Gal(b1-4)]GlcNAc(b1-3)Gal(b1-4)[Fuc(a1-3)]GlcNAc
# Outline: as §1
# [43] = target: Fuc(a1-3)[Gal(b1-4)]GlcNAc(b1-3)Gal(b1-4)[Fuc(a1-3)]GlcNAc(b1-3)Gal(b1-4)[Fuc(a1-3)]GlcNAc
# Outline: as §1
# [44] = target: Fuc(a1-3)[Gal(b1-4)]GlcNAc(b1-3)GalNAc
# Outline: as §1
# [45] = target: Fuc(a1-3)[Gal(b1-4)]GlcNAc(b1-4)Gal(b1-4)[Fuc(a1-3)]GlcNAc
# Outline: as §1
# [46] = target: Fuc(a1-3)[Gal(b1-4)]GlcNAc(b1-4)Gal(b1-4)[Fuc(a1-3)]GlcNAc(b1-4)Gal(b1-4)[Fuc(a1-3)]GlcNAc
# Outline: as §1
# [47] = target: Fuc(a1-3)[Gal(b1-4)]GlcNAc(b1-6)GalNAc
# Outline: as §1
# [48] = target: Fuc(a1-3)[Gal(b1-4)]GlcNAc(b1-6)[Gal(b1-3)GlcNAc(b1-3)]Gal(b1-4)Glc
# Outline: as §1
# [49] = target: Fuc(a1-3)[Gal(b1-4)]GlcNAc(b1-6)[Neu5Ac(a2-3)Gal(b1-3)]GalNAc
# Outline: as §1
# [50] = target: Fuc(a1-3)[Gal(b1-4)]GlcNAc6S
# Outline: as §1
# [51] = target: Fuc(a1-3)[Gal3S(b1-4)]Glc
# Outline: as §1
# [52] = target: Fuc(a1-3)[Gal3S(b1-4)]GlcNAc
# Outline: as §1
# [53] = target: Fuc(a1-3)[Gal3S(b1-4)]GlcNAc6S
# Outline: as §1
# [54] = target: Fuc(a1-3)[GalNAc(b1-4)]GlcNAc
# Outline: as §1
# [55] = target: Fuc(a1-3)[GalNAc(b1-4)]GlcNAc6S
# Outline: as §1
# Fuc(a1-4)GlcNAc = target: Fuc(a1-4)GlcNAc
# Outline: as §1
# Fuc(b1-3)GlcNAc = target: Fuc(b1-3)GlcNAc
# Outline: as §1
# Gal(a1-2)Gal = target: Gal(a1-2)Gal
# Outline: as §1
# Gal(a1-3)Gal = target: Gal(a1-3)Gal
# Outline: as §1
binder,measurement,setting,value
KISKRILTGKK [NK11 (Sus scrofa)],glycan array binding signal (z-score),[1],0.117
same,glycan array binding signal (z-score),[2],-0.11
same,glycan array binding signal (z-score),[3],-0.609
same,glycan array binding signal (z-score),[4],-0.085
same,glycan array binding signal (z-score),[5],0.702
same,glycan array binding signal (z-score),[6],-0.848
same,glycan array binding signal (z-score),[7],-0.484
same,glycan array binding signal (z-score),[8],-0.577
same,glycan array binding signal (z-score),[9],-0.805
same,glycan array binding signal (z-score),[10],-1.04
same,glycan array binding signal (z-score),[11],0.133
same,glycan array binding signal (z-score),[12],0.477
same,glycan array binding signal (z-score),[13],0.014
same,glycan array binding signal (z-score),[14],-0.001
same,glycan array binding signal (z-score),[15],0.547
same,glycan array binding signal (z-score),[16],1.06
same,glycan array binding signal (z-score),[17],0.316
same,glycan array binding signal (z-score),[18],-0.032
same,glycan array binding signal (z-score),[19],0.353
same,glycan array binding signal (z-score),[20],0.052
same,glycan array binding signal (z-score),[21],-0.371
same,glycan array binding signal (z-score),[22],0.231
same,glycan array binding signal (z-score),[23],0.037
same,glycan array binding signal (z-score),[24],-1.03
same,glycan array binding signal (z-score),[25],0.922
same,glycan array binding signal (z-score),[26],0.421
same,glycan array binding signal (z-score),[27],-0.818
same,glycan array binding signal (z-score),[28],0.599
same,glycan array binding signal (z-score),[29],-1.25
same,glycan array binding signal (z-score),[30],0.196
same,glycan array binding signal (z-score),[31],-0.253
same,glycan array binding signal (z-score),[32],-0.15
same,glycan array binding signal (z-score),[33],0.275
same,glycan array binding signal (z-score),[34],-0.524
same,glycan array binding signal (z-score),[35],-0.608
same,glycan array binding signal (z-score),Fuc(a1-3)GlcNAc,-0.64
same,glycan array binding signal (z-score),[36],-0.446
same,glycan array binding signal (z-score),[37],-0.409
same,glycan array binding signal (z-score),[38],0.202
same,glycan array binding signal (z-score),[39],-0.485
same,glycan array binding signal (z-score),[40],0.444
same,glycan array binding signal (z-score),[41],-0.463
same,glycan array binding signal (z-score),[42],0.057
same,glycan array binding signal (z-score),[43],-1.85
same,glycan array binding signal (z-score),[44],0.611
same,glycan array binding signal (z-score),[45],-0.315
same,glycan array binding signal (z-score),[46],-0.886
same,glycan array binding signal (z-score),[47],0.212
same,glycan array binding signal (z-score),[48],-0.334
same,glycan array binding signal (z-score),[49],-0.094
same,glycan array binding signal (z-score),[50],0.867
same,glycan array binding signal (z-score),[51],0.463
same,glycan array binding signal (z-score),[52],0.048
same,glycan array binding signal (z-score),[53],1.22
same,glycan array binding signal (z-score),[54],-0.401
same,glycan array binding signal (z-score),[55],0.024
same,glycan array binding signal (z-score),Fuc(a1-4)GlcNAc,-0.161
same,glycan array binding signal (z-score),Fuc(b1-3)GlcNAc,-0.52
same,glycan array binding signal (z-score),Gal(a1-2)Gal,-0.462
same,glycan array binding signal (z-score),Gal(a1-3)Gal,0.306

# In a second layout: entries from further up.
binder | measurement | setting | value
KISKRILTGKK [NK11 (Sus scrofa)] | glycan array binding signal (z-score) | [20] | 0.052
same | glycan array binding signal (z-score) | [21] | -0.371
same | glycan array binding signal (z-score) | [22] | 0.231
same | glycan array binding signal (z-score) | [23] | 0.037
same | glycan array binding signal (z-score) | [24] | -1.03
same | glycan array binding signal (z-score) | [25] | 0.922
same | glycan array binding signal (z-score) | [26] | 0.421
same | glycan array binding signal (z-score) | [27] | -0.818
same | glycan array binding signal (z-score) | [28] | 0.599
same | glycan array binding signal (z-score) | [29] | -1.25
same | glycan array binding signal (z-score) | [30] | 0.196
same | glycan array binding signal (z-score) | [31] | -0.253
same | glycan array binding signal (z-score) | [32] | -0.15
same | glycan array binding signal (z-score) | [33] | 0.275
same | glycan array binding signal (z-score) | [34] | -0.524
same | glycan array binding signal (z-score) | [35] | -0.608

# Reference: the supplement of paper PMC8728848
